Our source for the luminescence peak values is patent US20120034672A1, “[…] LUCIFERASE VARIANT WITH PROLONGED BIOLUMINESCENCE” (priority 2009, published 2012).

First the molecules themselves.
B1: Y97W: GLuc variant in which tyrosine (Y) at position 97 was mutated to tryptophan (W) (protein)
chain: MGVKVLFALICIAVAEAKPTENNEDFNIVAVASNFATTDLDADRGKLPGKKLPLEVLKEMEANARKAGCTRGCLICLSHIKCTPKMKKFIPGRCHTWEGDKESAQGGIGEAIVDIPEIPGFKDLEPMEQFIAQVDLCVDCTTGCLKGLANVQCSDLLKKWLPQRCATFASKIQGQVDKIKGAGGDKDEL
modifications: GLuc mutant (Y97W)
B2: I90L/I115L: GLuc with isoleucine at positions 90 and 115 replaced with leucine (protein)
chain: MGVKVLFALICIAVAEAKPTENNEDFNIVAVASNFATTDLDADRGKLPGKKLPLEVLKEMEANARKAGCTRGCLICLSHIKCTPKMKKFLPGRCHTYEGDKESAQGGIGEAIVDLPEIPGFKDLEPMEQFIAQVDLCVDCTTGCLKGLANVQCSDLLKKWLPQRCATFASKIQGQVDKIKGAGGDKDEL
modifications: GLuc mutant (I90L/I115L)
B3: F89W/I90L: GLuc with isoleucine 90 replaced with leucine and phenylalanine 89 with tryptophan (protein)
chain: MGVKVLFALICIAVAEAKPTENNEDFNIVAVASNFATTDLDADRGKLPGKKLPLEVLKEMEANARKAGCTRGCLICLSHIKCTPKMKKWLPGRCHTYEGDKESAQGGIGEAIVDIPEIPGFKDLEPMEQFIAQVDLCVDCTTGCLKGLANVQCSDLLKKWLPQRCATFASKIQGQVDKIKGAGGDKDEL
modifications: GLuc mutant (F89W/I90L); named 8990

A short description of this series: Luminescence spectrum of GLuc variants in COS-7 cell lysates (5-minute lysis, spectrophotometer). The format is biochemical. Particulars: coelenterazine. The protocol:
Subsequently, cell lysates were prepared from the COS-7 cells in each well (5-minute lysis), and a spectrum was measured in the presence of a luciferase-specific substrate (coelenterazine), using a fluorescence spectrophotometer (F-7000, Hitachi), thereby examining the effect of the introduced mutation. FIGS. 4B-1 and 4C show the results.
Additionally, in the preparation of cell samples, the samples are immersed in a lysis solution for 5 minutes. This allows preparation of non-uniform samples of cells whose organelles are not lysed, by a quick process.
For B1, the luminescence peak was 486 nm. Then B2, with 483 nm; and B3, with 481 nm.
